# Values from PubChem BioAssay AID1508588 (Peter MacCallum Cancer Centre, 2020).
# Assay: 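Knock-downs boosting vemurafenib effects on melanoma cell growth or lactate release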 (primary screen)
# Cells: human WM266.4 melanoma cells (BRAF V600 mutant)
# Reagents: siRNA pool against human genes, 40 nM
# Duration: 96 h from transfection to read-out
# Conditions: vemurafenib 300 nM (about IC25), added 48 h after transfection, for 48 h; comparison arm got DMSO vehicle only
# Detection: 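Ratios to non-targeting siRNA for cell gain, counted as DAPI nuclei after minus before drug and averaged over two replicates, and for absorbance-read medium lactate per cell; both binned into fold-change classes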
# Reading the numbers: cell gain with vemurafenib: higher = more cell gain than with non-targeting siRNA; lactate per cell with vemurafenib: higher = more lactate made per cell
# Active means: 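Enhancement is called by pairing each knock-down's vehicle-arm and drug-arm fold-change classes for viability or glycolysis; which class combinations qualify is not given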
# Meaning of the calls: active = enhances vemurafenib effect; inactive = no enhancement seen
# This is an unselected part of about 18,000 reagents. Over the whole deposit, 790 (4.4%) got an active call. 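Calls rest on a combination of fold-change classes in drug and vehicle arms, not all shown here.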 Unmarked entries are inactive. No sequences are given here.
target gene,cell gain with vemurafenib,lactate per cell with vemurafenib
PPP6C (protein phosphatase 6 catalytic subunit),1.3,1.85
MGAT1,0.77,1.25
NLRP10 (NLR family pyrin domain containing 10),0.76,0.5
ZXDB (zinc finger X-linked duplicated B),0.24,2.37
EMX1 (empty spiracles homeobox 1),0.54,0.97
GPR137 (G protein-coupled receptor 137),0.85,0.55
FAM50A (family with sequence similarity 50 member A),0.97,0.5
DAP (death associated protein),0.29,0.66
CBR3 (carbonyl reductase 3),0.71,0.84
CNN1 (calponin 1),0.87,0.94
GDI1 (GDP dissociation inhibitor 1),0.97,0.71
GH1 (growth hormone 1),0.82,1.02
C2orf78 (chromosome 2 open reading frame 78),0.51,1.4
RTL4 (retrotransposon Gag like 4),0.69,0.89
ICAM1 (intercellular adhesion molecule 1),0.13,2.22
NAXE (NAD(P)HX epimerase),0.45,0.88
FGFR2 (fibroblast growth factor receptor 2),0.29,0.87
TRIM9 (tripartite motif containing 9),0.56,1.08
LTBP3 (latent transforming growth factor beta binding protein 3),0.04,2.27
VAT1 (vesicle amine transport 1),0.28,0.73
TDG (thymine DNA glycosylase),0.73,0.87
GNB1 (G protein subunit beta 1),0.48,0.31
GPHRB (golgi pH regulator B),0.39,0.55
ITIH2 (inter-alpha-trypsin inhibitor heavy chain 2),0.62 (active),0.48
S100A16 (S100 calcium binding protein A16),0.71,0.92
FZD1 (frizzled class receptor 1),0.14,2.96
YWHAQ,0.48,0.42
ZMYND12 (zinc finger MYND-type containing 12),0.2,0.78
SNCB (synuclein beta),0.48,1.42
C16orf82 (chromosome 16 open reading frame 82),0.53,1.12
NAF1 (nuclear assembly factor 1 ribonucleoprotein),0.96,0.52
ZNF597 (zinc finger protein 597),0.18 (active),0.4
PM20D1 (peptidase M20 domain containing 1),0.36,0.71
KCNIP1 (potassium voltage-gated channel interacting protein 1),1.27,0.77
MPEG1 (macrophage expressed 1),0.72,0.94
NUP160 (nucleoporin 160),0.7,0.6
DUOXA1 (dual oxidase maturation factor 1),0.35,1.19
MCM5 (minichromosome maintenance complex component 5),0.66,0.54
AMACR (alpha-methylacyl-CoA racemase),0.85,0.48
PSAT1 (phosphoserine aminotransferase 1),1.13,0.7
C1orf35 (chromosome 1 open reading frame 35),0.4,1.79
ZNF277 (zinc finger protein 277),0.83,0.91
RAPGEF1 (Rap guanine nucleotide exchange factor 1),0.51,1.15
TCERG1L (transcription elongation regulator 1 like),0.21,0.9
ADCY5 (adenylate cyclase 5),0.64,0.76
NEMF (nuclear export mediator factor),0.29,0.74
"ST8SIA3 (ST8 alpha-N-acetyl-neuraminide alpha-2,8-sialyltransferase 3)",0.52,0.92
NANOG (Nanog homeobox),-0.01,1.4
CPNE5 (copine 5),0.44,1.18
"AIDA (axin interactor, dorsalization associated)",0.94,0.94
ADGRV1 (adhesion G protein-coupled receptor V1),0.93,0.57
UBA3 (ubiquitin like modifier activating enzyme 3),1.02,1.02
VAMP1 (vesicle associated membrane protein 1),0.12,2.46
DNAAF19 (dynein axonemal assembly factor 19),0.24,2.87
ADAMTSL5 (ADAMTS like 5),0.9,0.92
NLN (neurolysin),0.55,0.62
MRPS18B (mitochondrial ribosomal protein S18B),1.02,0.76
TARDBP (TAR DNA binding protein),0.09,1.27
CNOT10 (CCR4-NOT transcription complex subunit 10),0.6,0.54
ACOT4 (acyl-CoA thioesterase 4),0.44,0.8
LIN28A (lin-28 RNA binding posttranscriptional regulator A),0.42,0.98
KLK5 (kallikrein related peptidase 5),0.19,0.92
USP14 (ubiquitin specific peptidase 14),0.2,1.98
SYT3 (synaptotagmin 3),1.17,0.76
SPARC (secreted protein acidic and cysteine rich),0.79 (active),0.15
CCDC172 (coiled-coil domain containing 172),0.57,1.26
PDSS1 (decaprenyl diphosphate synthase subunit 1),0.92,1.09
FAM47C (family with sequence similarity 47 member C),0.7,1.1
RAD9A (RAD9 checkpoint clamp component A),0.32,1.17
F8 (coagulation factor VIII),0.34,0.78
NEK8 (NIMA related kinase 8),0.01,2.02
H2AC18 (H2A clustered histone 18),0.37,1.47
ABCC12 (ATP binding cassette subfamily C member 12),1.01,1
ARHGAP8 (Rho GTPase activating protein 8),1,1.33
ORC4 (origin recognition complex subunit 4),0.87,1.29
ADAMTS4 (ADAM metallopeptidase with thrombospondin type 1 motif 4),0.59,1.01
CAPZB (capping actin protein of muscle Z-line subunit beta),0.3,0.95
MKNK2 (MAPK interacting serine/threonine kinase 2),0.56,0.8
BTNL9 (butyrophilin like 9),0.94,0.78
SHPRH (SNF2 histone linker PHD RING helicase),0.7,1.17
PITPNC1 (phosphatidylinositol transfer protein cytoplasmic 1),0.45 (active),0.38
WBP1 (WW domain binding protein 1),0.5,1.5
DYNLRB2 (dynein light chain roadblock-type 2),0.26,0.68
"SH3GLB1 (SH3 domain containing GRB2 like, endophilin B1)",0.12,1.27

14 consecutive reagents from above:
target gene,cell gain with vemurafenib,lactate per cell with vemurafenib
NAXE (NAD(P)HX epimerase),0.45,0.88
FGFR2 (fibroblast growth factor receptor 2),0.29,0.87
TRIM9 (tripartite motif containing 9),0.56,1.08
LTBP3 (latent transforming growth factor beta binding protein 3),0.04,2.27
VAT1 (vesicle amine transport 1),0.28,0.73
TDG (thymine DNA glycosylase),0.73,0.87
GNB1 (G protein subunit beta 1),0.48,0.31
GPHRB (golgi pH regulator B),0.39,0.55
ITIH2 (inter-alpha-trypsin inhibitor heavy chain 2),0.62 (active),0.48
S100A16 (S100 calcium binding protein A16),0.71,0.92
FZD1 (frizzled class receptor 1),0.14,2.96
YWHAQ,0.48,0.42
ZMYND12 (zinc finger MYND-type containing 12),0.2,0.78
SNCB (synuclein beta),0.48,1.42
